Measurements reported in PubChem BioAssay AID1259254 (NCATS, 2017).
This is one part, drawn at random, of about 59,000 deposited reagents. Over the whole deposit, about 1,550 (2.6%) are marked active. 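G2 share is only a proxy for re-replication; each gene was hit by three separate siRNAs, and active genes were retested.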 Raw values vary from plate to plate and are shown uncorrected. The numbers tell different reagents against one gene apart. Reagent sequences are not shown. Not stated in the record: the amount of reagent.

Aim: 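Finding genes that stop cells copying their DNA twice in one cycle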 (primary screen)
Cell system: human HCT116 colorectal cancer cells
Reagents: single siRNA against human genes
Timing: 3 days
Read-out: 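Imaged Hoechst DNA stain sorts each cell into a cycle phase by DNA amount; per plate, G2 fraction set to 0% for non-targeting and 100% for GMNN siRNA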
Reading the numbers: G2 robust z-score and G2 cells, % of GMNN control: higher = more G2 cells, more excess DNA replication; raw share of cells in G2: higher = larger share of cells with G2 DNA content
Hit rule: 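Active siRNAs have a G2 robust z of 5 or more median absolute deviations over the median, which in these data means about 38% or higher of GMNN control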

Target gene	reagent	G2 robust z-score	G2 cells, % of GMNN control	raw share of cells in G2 (%)	activity call
POLR2L	1	1.49	13.5	9.83	inactive
POLR2L	2	-1.09	-4.74	2.57	inactive
POLR2L	3	0.65	7.54	7.57	inactive
EPHA4	1	-0.513	-0.64	3.8	inactive
EPHA4	2	4.87	37.2	17.9	inactive
EPHA4	3	-0.301	0.848	5.7	inactive
GPAT3	1	-0.861	-3.09	3.64	inactive
GPAT3	2	1.5	13.5	9.09	inactive
GPAT3	3	0.993	9.95	9.57	inactive
ADAMTSL3	1	-0.0448	2.65	3.73	inactive
ADAMTSL3	2	0.912	9.39	10.2	inactive
ADAMTSL3	3	-0.901	-3.37	2.57	inactive
RPS8	1	6.24	46.9	24.9	active
RPS8	2	3.83	29.9	16	inactive
RPS8	3	4.58	35.2	16.1	inactive
ZNF425	1	-0.59	-1.19	2.68	inactive
ZNF425	2	-0.619	-1.39	2.68	inactive
ZNF425	3	1.48	13.4	8.22	inactive
FANCL	1	2.15	18.1	14.4	inactive
FANCL	2	0.225	4.55	6.07	inactive
FANCL	3	-1.07	-4.55	2.44	inactive
NIPSNAP1	1	0.597	7.17	8.31	inactive
NIPSNAP1	2	0.00392	3	5.08	inactive
NIPSNAP1	3	0.384	5.67	5.35	inactive
TONSL	1	-0.6	-1.25	2.9	inactive
TONSL	2	6.69	50	26.2	active
TONSL	3	0.39	5.71	6.48	inactive
HSBP1	1	0.879	9.15	7.44	inactive
HSBP1	2	0.659	7.6	6.5	inactive
HSBP1	3	-0.242	1.27	5.9	inactive
TRIM37	1	-0.401	0.145	5.42	inactive
TRIM37	2	1.99	17	8.8	inactive
TRIM37	3	1.16	11.2	9.89	inactive
C6orf62	1	0.247	4.71	5.67	inactive
C6orf62	2	-0.983	-3.95	2.29	inactive
C6orf62	3	-0.657	-1.66	1.9	inactive
FOXP1	1	0.184	4.26	5.6	inactive
FOXP1	2	0.669	7.67	6.5	inactive
FOXP1	3	1.56	13.9	12.5	inactive
GAS2L3	1	-0.314	0.756	3.92	inactive
GAS2L3	2	0.357	5.48	5.16	inactive
GAS2L3	3	0.877	9.14	6.04	inactive
MIR1915HG	1	0.428	5.98	7.27	inactive
MIR1915HG	2	-0.661	-1.69	3.2	inactive
MIR1915HG	3	3.23	25.7	13.7	inactive
LOC401021	1	-0.299	0.866	4.13	inactive
LOC401021	2	0.239	4.65	5.36	inactive
LOC401021	3	-0.511	-0.625	4.53	inactive
MORC1	1	0.822	8.75	10.1	inactive
MORC1	2	-0.712	-2.04	3.32	inactive
MORC1	3	-0.233	1.33	4.63	inactive
HAAO	1	-0.0518	2.6	5.03	inactive
HAAO	2	1.35	12.5	8.14	inactive
HAAO	3	1.29	12.1	11.2	inactive
UGT2A3	1	0.393	5.73	6.82	inactive
UGT2A3	2	2.13	18	12.2	inactive
UGT2A3	3	1.36	12.6	5.81	inactive
MACROD1	1	1.84	15.9	9.92	inactive
MACROD1	2	3.85	30	15.9	inactive
MACROD1	3	0.0828	3.55	4.37	inactive
GMPR	1	4.99	38.1	19.1	inactive
GMPR	2	0.457	6.18	7.61	inactive
GMPR	3	-0.717	-2.08	2.92	inactive
NBPF22P	1	1.06	10.4	7.07	inactive
NBPF22P	2	1.4	12.8	7.17	inactive
NBPF22P	3	-1.02	-4.19	2.11	inactive
KCNG4	1	-0.86	-3.08	4.17	inactive
KCNG4	2	0.272	4.88	6.43	inactive
KCNG4	3	1.21	11.5	8.85	inactive

Hits, among the entries above:
Target gene	reagent	G2 robust z-score	G2 cells, % of GMNN control	raw share of cells in G2 (%)	activity call
RPS8	1	6.24	46.9	24.9	active
TONSL	2	6.69	50	26.2	active
